Laboratory results: paper PMC6797744
No constants are given. Whether binding was seen depends on the method and setting. Binding seen in cells or lysates may run through a third protein. Some binding calls cover weakened binding; strength is not graded here.

Chains of the proteins cited; added tags and fusions are not shown. Lines headed by an entry give the natural chain unless they say otherwise; changes in a name come on top.
UniProt Q9H9S0: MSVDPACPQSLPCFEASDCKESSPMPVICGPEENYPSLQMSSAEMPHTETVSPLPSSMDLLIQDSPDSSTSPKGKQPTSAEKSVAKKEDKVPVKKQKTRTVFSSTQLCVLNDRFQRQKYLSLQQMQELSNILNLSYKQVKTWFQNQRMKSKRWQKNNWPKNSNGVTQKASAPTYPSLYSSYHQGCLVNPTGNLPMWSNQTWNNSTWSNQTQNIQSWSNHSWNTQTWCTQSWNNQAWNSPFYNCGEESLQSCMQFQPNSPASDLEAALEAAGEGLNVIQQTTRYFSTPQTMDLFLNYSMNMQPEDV
UniProt O43791: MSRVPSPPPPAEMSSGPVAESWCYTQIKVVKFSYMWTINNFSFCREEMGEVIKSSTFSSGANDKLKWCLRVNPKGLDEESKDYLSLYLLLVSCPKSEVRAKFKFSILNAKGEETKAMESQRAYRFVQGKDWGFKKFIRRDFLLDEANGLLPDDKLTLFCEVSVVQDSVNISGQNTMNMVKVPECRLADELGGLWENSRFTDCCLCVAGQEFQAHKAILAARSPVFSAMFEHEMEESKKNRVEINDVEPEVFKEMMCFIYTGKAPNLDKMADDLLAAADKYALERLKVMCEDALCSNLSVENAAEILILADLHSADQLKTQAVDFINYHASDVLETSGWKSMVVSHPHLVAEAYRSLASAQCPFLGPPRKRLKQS

How the values were obtained:
His-NANOG (human) = His-NANOG (human) (UniProt Q9H9S0); assay: co-IP; SW1990 cells treated with 20 uM MG132 for 8 h; lysates incubated with indicated antibodies at 4 °C overnight, then Protein A + G Agarose for 3 h at 4 °C; western blot
NANOG (human) = NANOG (human) (UniProt Q9H9S0); assay: as above

| binding (His-NANOG (human)) | binding (NANOG (human)) | Substance |
| --- | --- | --- |
| binds |  | Flag-SPOP-Q360* (from UniProt O43791 1-359) (domain or fragment) |
|  | binds | Speckle-type POZ domain protein (SPOP) (from UniProt O43791 1-374) |
